Data on 6 compounds can be found in US10960088B2, “Macrocycles, cobalt and iron complexes of same, and methods of making and using same” (The Research Foundation for The State University of New York, priority 2013, dated 2021).

The nature of data set [1]: CEST spectroscopy at 11.7 T.
Data set [2] in a line: T1/T2 relaxivity at 4.7 T.
The mark [3] stands for this setting: from slopes, FIG. 47, HEPES buffer pH 7.2, 37° C.
Setting [4] is: 10 mM Co(II) complex, 20 mM HEPES, 100 mM NaCl, pH 7.4, B1=24 μT for 2 s, 37° C.
The mark [5] stands for this setting: 4.7 Telsa, 37° C., 0.25-4 mM complex, 20 mM HEPES, 100 mM NaCl, pH 7.4-7.5.

Take `[Co+2].c1cc(CN2CCN(Cc3cc[nH]n3)CCN(Cc3cc[nH]n3)CC2)n[nH]1` [[Co(TPT)]^2+]: the “CEST peak (in words)” value in data set [1] (diamagnetic Co(III) form) was “no highly shifted CEST peak”. Further, the “pH optimum of CEST effect” value in data set [1] (pH range of 6-8, 37° C.) is 6.9. For the same compound, the CEST peak position in data set [1] (versus water set at zero, 37° C., 20 mM buffer, 100 mM NaCl) turned out to be 135 ppm. In data set [2] (4.7 T MRI scanner), the T1 Relaxivity turned out to be 0.093 mM⁻¹ s⁻¹ and the T2 Relaxivity was 0.50 mM⁻¹ s⁻¹. In data set [2] (setting [3]), this compound displayed a T1 Relaxivity of 0.093 mM/s and a T2 Relaxivity of 0.50 mM/s.
`NC(=O)CN1CCN(CC(N)=O)CCN(CC(N)=O)CCN(CC(N)=O)CC1.[Co+2]` [[Co(TCMC)]^2+] came in with a CEST peak position in data set [1] (setting [4]) of 45 ppm. Besides, in data set [2] (setting [5]), the “T1 Relaxivity” value was found to be 0.096 mM⁻¹ s⁻¹ and the “T2 Relaxivity” value stood at 0.213 mM⁻¹ s⁻¹.
Compound `NC(=O)CN1CCN(CC(N)=O)CCN(CC(N)=O)CC1.[Co+2]` [[Co(TCMT)]^2+] displayed a CEST peak position in data set [1] (setting [4]) of 32 ppm. Moreover, in data set [2] (setting [5]), the “T1 Relaxivity” value was found to be 0.125 mM⁻¹ s⁻¹ and the “T2 Relaxivity” value came out at 0.297 mM⁻¹ s⁻¹.
As for `NC(=O)CN1CCCN(CC(N)=O)CCN(CC(N)=O)CCCN(CC(N)=O)CC1.[Co+2]` [[Co(CCRM)]^2+], in data set [2] (setting [5]), the “T1 Relaxivity” value stood at 0.008 mM⁻¹ s⁻¹ and the “T2 Relaxivity” value stood at 0.127 mM⁻¹ s⁻¹.
With `[Fe+2].c1cc(CN2CCN(Cc3cc[nH]n3)CCN(Cc3cc[nH]n3)CC2)n[nH]1` [[Fe(TPT)]^2+], the “CEST peak position upon air oxidation” value in data set [1] (after air oxidation, versus the bulk water peak) stood at 5 ppm. In data set [1] (neutral pH), this compound had a CEST peak position of 18 ppm.
In the case of `NC(=O)CN1CCOCCOCCN(CC(N)=O)CCOCC1.[Co+2]` [[Co(NOPE)]^2+], in data set [2] (setting [5]), the “T1 Relaxivity” value worked out at 0.038 mM⁻¹ s⁻¹ and the “T2 Relaxivity” value turned out to be 0.119 mM⁻¹ s⁻¹.
